Binding data for one substance are collected here from PMC6286816.

Chains of the proteins cited; added tags and fusions are not shown.
UniProt Q2NL51: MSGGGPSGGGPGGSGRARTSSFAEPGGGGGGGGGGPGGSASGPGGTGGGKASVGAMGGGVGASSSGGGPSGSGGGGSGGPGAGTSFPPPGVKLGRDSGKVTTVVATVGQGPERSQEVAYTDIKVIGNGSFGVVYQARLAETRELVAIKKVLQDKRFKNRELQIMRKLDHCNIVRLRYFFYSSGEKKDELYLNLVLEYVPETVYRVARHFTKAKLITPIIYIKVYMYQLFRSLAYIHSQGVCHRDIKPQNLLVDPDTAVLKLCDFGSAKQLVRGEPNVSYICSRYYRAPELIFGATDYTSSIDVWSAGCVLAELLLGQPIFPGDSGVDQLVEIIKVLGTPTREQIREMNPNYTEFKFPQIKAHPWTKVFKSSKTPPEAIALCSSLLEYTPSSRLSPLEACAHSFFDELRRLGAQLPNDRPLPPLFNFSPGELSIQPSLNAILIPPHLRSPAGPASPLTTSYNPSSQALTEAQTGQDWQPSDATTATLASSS
UniProt Q8K1M6: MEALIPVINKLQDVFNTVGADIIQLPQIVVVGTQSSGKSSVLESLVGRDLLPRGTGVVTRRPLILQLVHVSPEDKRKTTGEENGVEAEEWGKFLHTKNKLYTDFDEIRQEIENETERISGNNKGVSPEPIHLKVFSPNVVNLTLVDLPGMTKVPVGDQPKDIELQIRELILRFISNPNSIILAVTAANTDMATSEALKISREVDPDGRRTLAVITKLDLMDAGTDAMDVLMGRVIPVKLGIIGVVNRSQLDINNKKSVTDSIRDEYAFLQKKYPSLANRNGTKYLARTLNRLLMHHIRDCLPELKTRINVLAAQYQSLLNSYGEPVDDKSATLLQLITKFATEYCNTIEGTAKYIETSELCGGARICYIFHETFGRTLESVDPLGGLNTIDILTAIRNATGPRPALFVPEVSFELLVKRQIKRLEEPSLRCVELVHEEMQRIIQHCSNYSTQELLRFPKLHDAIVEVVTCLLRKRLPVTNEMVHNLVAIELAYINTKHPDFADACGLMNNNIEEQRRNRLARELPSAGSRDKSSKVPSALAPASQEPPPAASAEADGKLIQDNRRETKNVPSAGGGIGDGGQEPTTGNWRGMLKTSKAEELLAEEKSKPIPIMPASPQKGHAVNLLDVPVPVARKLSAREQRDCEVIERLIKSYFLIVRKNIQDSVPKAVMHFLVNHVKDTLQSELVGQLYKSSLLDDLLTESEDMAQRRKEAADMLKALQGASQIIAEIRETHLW

This test concerns the target Glycogen synthase kinase-3α (mouse (endogenous in TM4)) (UniProt Q2NL51). Nature of the test: co-IP; 500 μg total protein of TM4 cells (control, heat shock, SB216763), precleared with protein A/G plus beads, incubated with 4 μg GSK3α antibodies overnight at 4°C, agarose beads 2 h at 4°C; blot for Ser637-Drp1.

No constants are given. Whether binding was seen depends on the method and setting. In cells and extracts the contact can be indirect. Some results given as binding are weak or reduced against the parent protein; the word gives no strength.

As to “dynamin related protein 1 phosphorylated at Ser637 (from UniProt Q8K1M6 1-736)”, the binding result is reported as “binds”.
